Experimental findings from the supplement of paper PMC8732350 are described below.

Where a name gives a salt, the structure may show the parent alone. ± gives the standard deviation of the averaged measurements. This is one part of the list. Repeats in this data set agree poorly, so a single value says little.

The experiment relates to A549. Nature of the experiment: surface PD-L1 immunofluorescence intensity relative to IFN-gamma-only control (ratio); higher = more PD-L1 expression. Conditions: 10 µM; exposure time 24 h; IFN-gamma 100 ng/mL.
For the molecule `CC[N+](CC)(CC)CCOc1cccc(OCC[N+](CC)(CC)CC)c1OCC[N+](CC)(CC)CC` [Gallamine triethiodide], the “surface PD-L1 immunofluorescence intensity” value turned out to be 0.966.
As to `CCOC(=O)[N-]c1c[n+](N2CCOCC2)no1` [Molsidomine], the “surface PD-L1 immunofluorescence intensity” value was 1.
For the molecule `CN1CCC[C@@H]1CCO[C@](C)(c1ccccc1)c1ccc(Cl)cc1` [Clemastine fumarate], the “surface PD-L1 immunofluorescence intensity” value turned out to be 1.03 ± 0.045.
For `CCOc1ccc(NC(C)=O)cc1` [Phenacetin], the “surface PD-L1 immunofluorescence intensity” value came to 0.925.
As for `O=C(c1ccc(OCCCc2c[nH]cn2)cc1)C1CC1` [Ciproxifan], the “surface PD-L1 immunofluorescence intensity” value worked out at 0.997.
For `[O-][S+](c1ccccc1)c1ccc2nnnn2n1` (stereo unspecified), the “surface PD-L1 immunofluorescence intensity” value was found to be 1.15.
On to `CC(C(=O)O)c1ccc(C(=O)c2cccs2)cc1` (stereo unspecified) [Suprofen], for which the “surface PD-L1 immunofluorescence intensity” value was found to be 1.07.
As for `COc1cc2ncnc(Nc3ccc(F)c(Cl)c3)c2cc1OCCCN1CCOCC1` [Gefitinib (Iressa)], the figure is 0.976; as for `COc1cc2ncnc(Nc3ccc(F)c(Cl)c3)c2cc1OCCCN1CCOCC1` [Gefitinib], 0.975.
`CN1CCN(c2nc(C3=C(c4c[nH]c5ccccc45)C(=O)NC3=O)c3ccccc3n2)CC1` [Sotrastaurin (AEB071)]: the “surface PD-L1 immunofluorescence intensity” value was found to be 1.18.
In the case of `CCCCC[C@H](O)/C=C/[C@H]1[C@H](O)CC(=O)[C@@H]1CCCCCCC(=O)O` [Alprostadil (Caverject)], the “surface PD-L1 immunofluorescence intensity” value was 1.01.
As for `CCCCC[C@H](O)/C=C/[C@H]1[C@H](O)CC(=O)[C@@H]1CCCCCCC(=O)O` [Alprostadil], the “surface PD-L1 immunofluorescence intensity” value was 1.01.
As for `O=C(O)c1cccnc1C(=O)O` [Quinolinic acid], the figure is 1.09; as for `CCN1CCC[C@H]1CNC(=O)c1c(O)c(Cl)cc(Cl)c1OC` [Raclopride], 0.952 ± 0.066.
In the case of `NC(N)=NCCC[C@H](NC(=O)[C@@H]1CCCN1C(=O)[C@H](N)Cc1ccccc1)C(=O)CCl`, the “surface PD-L1 immunofluorescence intensity” value was found to be 1.04.
`CN(C(=O)c1c(O)c2ccccc2n(C)c1=O)c1ccccc1` [Linomide]: the “surface PD-L1 immunofluorescence intensity” value worked out at 0.99.
Regarding `CC(C)Cc1ccc(C(C)C(=O)O)cc1` (stereo unspecified) [Ibuprofen Lysine (NeoProfen)], the “surface PD-L1 immunofluorescence intensity” value was found to be 1.09.
For `COc1ccc(C(=O)c2ccccc2O)c(O)c1` [Dioxybenzone], the “surface PD-L1 immunofluorescence intensity” value turned out to be 0.998.
Take `CC(C)(C)NC[C@H](O)COc1ccccc1C1CCCC1` [Penbutolol sulfate]: the “surface PD-L1 immunofluorescence intensity” value worked out at 1.01.
For the molecule `Nc1nc2[nH]cc(CCc3ccc(C(=O)N[C@@H](CCC(=O)O)C(=O)O)cc3)c2c(=O)[nH]1` [Pemetrexed (Alimta)], the “surface PD-L1 immunofluorescence intensity” value came to 0.939.
As to `COc1ccc2cccc(N3CCN(CCNC(=O)c4ccc(F)cc4)CC3)c2c1`, the “surface PD-L1 immunofluorescence intensity” value came to 0.971.
`O=C(O)[C@H]1/C(=C/CO)O[C@@H]2CC(=O)N21` [Clavulanate potassium salt]: the “surface PD-L1 immunofluorescence intensity” value was found to be 0.947.
As to `O=C(OCCOCCO)c1ccccc1Nc1cccc(C(F)(F)F)c1` [Etofenamate], the “surface PD-L1 immunofluorescence intensity” value worked out at 1.09.
As for `CC(=O)Oc1ccccc1C(=O)Oc1cccc(CO[N+](=O)[O-])c1`, the “surface PD-L1 immunofluorescence intensity” value stood at 1.08.
As to `Cc1cnc(C(=O)O)c[n+]1[O-]` [Acipimox], the “surface PD-L1 immunofluorescence intensity” value was 1.05.
To `O=c1c(O)c(-c2ccc(O)c(O)c2)oc2cc(O)cc(O)c12` [Quercetin] belongs 1.04 ± 0.092; to `O=c1c(O)c(-c2ccc(O)c(O)c2)oc2cc(O)cc(O)c12` [Quercetin (Sophoretin)], 0.967.
To `O=C(O)C1(C(=O)O)CCC1.[NH2-].[NH2-].[Pt+2]` [Carboplatin] belongs 1; to `O=C1c2ccccc2S(=O)(=O)N1CCCCN1CCN(c2ncccn2)CC1` [Ipsapirone], 0.9884 ± 0.0014.
To `Cn1c([N+](=O)[O-])cnc1COC(N)=O` [Ronidazole] belongs 0.985; to `CN(C)[C@@H]1C(O)=C(C(N)=O)C(=O)[C@@]2(O)C(O)=C3C(=O)c4c(O)ccc(Cl)c4[C@@H](O)[C@H]3C[C@@H]12` [Demeclocycline hydrochloride], 1.04.
Take `O=C(O)CCC/C=C\C[C@@H]1CO[C@H](C(F)(F)F)O[C@@H]1c1ccccc1O`: the “surface PD-L1 immunofluorescence intensity” value stood at 0.883.
To `CC[C@@H]1/C=C(\C)C[C@H](C)C[C@H](OC)[C@H]2O[C@@](O)(C(=O)C(=O)N3CCCC[C@H]3C(=O)O[C@H](/C(C)=C/[C@@H]3CC[C@H](Cl)[C@H](OC)C3)[C@H](C)[C@@H](O)CC1=O)[C@H](C)C[C@@H]2OC` [Pimecrolimus] belongs 1.14.
For `CC(Oc1ccccc1)C(=O)N[C@@H]1C(=O)N2[C@@H]1SC(C)(C)[C@@H]2C(=O)O` (stereo partly specified) [Phenethicillin potassium salt], the “surface PD-L1 immunofluorescence intensity” value stood at 1.06.
For the molecule `O=C(O)c1cc(O)c2ccc(Cl)cc2n1` [7-Chlorokynurenic acid], the “surface PD-L1 immunofluorescence intensity” value came out at 1.09.
With `COc1ccc(C(=O)NCc2ccc(OCCN(C)C)cc2)cc1OC` [Itopride], the “surface PD-L1 immunofluorescence intensity” value was 0.966.
Consider `N[C@@H](C(=O)N[C@@H]1C(=O)N2C(C(=O)O)=C(Cl)CS[C@H]12)c1ccccc1` [Cefaclor hydrate], for which the “surface PD-L1 immunofluorescence intensity” value turned out to be 1.
Consider `OC[C@H]1NC[C@@H](O)[C@@H](O)[C@@H]1O` [1-Deoxymannojirimycin hydrochloride], for which the “surface PD-L1 immunofluorescence intensity” value is 0.992.
As to `CCCc1nc(C(C)(C)O)c(C(=O)O)n1Cc1ccc(-c2ccccc2-c2nnn[nH]2)cc1` [Olmesartan], the “surface PD-L1 immunofluorescence intensity” value was found to be 1.13.
Take `N=C(N)N/N=C/c1c(Cl)cccc1Cl` [Guanabenz acetate]: the “surface PD-L1 immunofluorescence intensity” value worked out at 1.06.
For `N[C@H](C(=O)O)[C@H](OCc1ccccc1)C(=O)O` (racemic), the “surface PD-L1 immunofluorescence intensity” value was found to be 0.94.
